Results on twelve compounds are retold here after the supplement of paper PMC4604168 (melanoma cell lines).

The list shows a part of the results. Repeats are few or missing, and single values can be far off.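 The apoptosis fraction was the count of cleaved-PARP antibody-stained nuclei relative to all DNA-stained nuclei, imaged in 1,536-well plates. Screening doses were set so most cells survived, and baseline and induced cleaved-PARP levels vary greatly across cell lines.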

The assay has as its system A2058. The experiment in a line: cleaved PARP positive nuclei fraction relative to DMSO control; melanoma cells; higher = more apoptosis. As to conditions: library dose: low library concentration; 72 h.
Turning to `CN(c1ncccc1CNc1nc(Nc2ccc3c(c2)CC(=O)N3)ncc1C(F)(F)F)S(C)(=O)=O` + Cn1c(=O)n(-c2ccc(C(C)(C)C#N)cc2)c2c3cc(-c4cnc5ccccc5c4)ccc3ncc21 [NVP-BEZ235] (first compound 0.08 µM, partner dose 0.004 µM), the “cleaved PARP positive nuclei fraction” value is 136%.

On to `NC(=O)c1ccc(N(C(N)=O)c2c(F)cccc2F)nc1-c1ccc(F)cc1F` + CC(=O)c1c(C)c2cnc(Nc3ccc(N4CCNCC4)cn3)nc2n(C2CCCC2)c1=O [palbociclib] (first compound 0.4 µM, partner dose 0.04 µM), for which the “cleaved PARP positive nuclei fraction” value turned out to be 60%.

Turning to `CN(c1ncccc1CNc1nc(Nc2ccc3c(c2)CC(=O)N3)ncc1C(F)(F)F)S(C)(=O)=O` + CCCS(=O)(=O)Nc1ccc(F)c(C(=O)c2c[nH]c3ncc(Cl)cc23)c1F [PLX4720] (first compound 0.08 µM, partner dose 0.08 µM), the “cleaved PARP positive nuclei fraction” value amounted to 42.1%.

For `CCCCCCCCc1ccc(CCC(N)(CO)CO)cc1` [fingolimod] + Nc1nc(F)nc2c1ncn2[C@@H]1O[C@H](CO)[C@@H](O)[C@@H]1O [fludarabine] (first compound 2 µM, partner dose 0.2 µM), the “cleaved PARP positive nuclei fraction” value was 141%.

With `CCCCCCCCc1ccc(CCC(N)(CO)CO)cc1` [fingolimod] + CC(=O)c1c(C)c2cnc(Nc3ccc(N4CCNCC4)cn3)nc2n(C2CCCC2)c1=O [palbociclib] (first compound 2 µM, partner dose 0.04 µM), the “cleaved PARP positive nuclei fraction” value came out at 55.6%.

Turning to `CC(=O)O[C@@]12CO[C@@H]1C[C@H](O)[C@@]1(C)C(=O)[C@H](O)C3=C(C)[C@@H](OC(=O)[C@H](O)[C@@H](NC(=O)OC(C)(C)C)c4ccccc4)C[C@@](O)([C@@H](OC(=O)c4ccccc4)[C@H]21)C3(C)C` [Docetaxel] + Cc1cc(Nc2cc(N3CCN(C)CC3)nc(/C=C/c3ccccc3)n2)n[nH]1 [ENMD2076] (first compound 0.0001 µM, partner dose 0.04 µM), the “cleaved PARP positive nuclei fraction” value came out at 1590%.

As to `CC1(C)CCC(c2ccc(Cl)cc2)=C(CN2CCN(c3ccc(C(=O)NS(=O)(=O)c4ccc(N[C@H](CCN5CCOCC5)CSc5ccccc5)c(S(=O)(=O)C(F)(F)F)c4)cc3)CC2)C1` + CCCS(=O)(=O)Nc1ccc(F)c(C(=O)c2c[nH]c3ncc(Cl)cc23)c1F [PLX4720] (first compound 0.4 µM, partner dose 0.08 µM), the “cleaved PARP positive nuclei fraction” value amounted to 101%.

Turning to `CC(=O)O[C@@]12CO[C@@H]1C[C@H](O)[C@@]1(C)C(=O)[C@H](O)C3=C(C)[C@@H](OC(=O)[C@H](O)[C@@H](NC(=O)OC(C)(C)C)c4ccccc4)C[C@@](O)([C@@H](OC(=O)c4ccccc4)[C@H]21)C3(C)C` [Docetaxel] + Cn1c(Nc2ccc(C(F)(F)F)cc2)nc2cc(Oc3ccnc(-c4ncc(C(F)(F)F)[nH]4)c3)ccc21 [CHIR265] (first compound 0.0001 µM, partner dose 0.08 µM), the “cleaved PARP positive nuclei fraction” value was 2840%.

As to `Cn1sc(=O)n(Cc2ccccc2)c1=O` + CC(C)C[C@H](NC(=O)[C@H](Cc1ccccc1)NC(=O)c1cnccn1)B(O)O [Bortezomib] (first compound 0.4 µM, partner dose 0.001 µM), the “cleaved PARP positive nuclei fraction” value is 143%.

For the compound `COc1ccc(C2=N[C@@H](c3ccc(Cl)cc3)[C@@H](c3ccc(Cl)cc3)N2C(=O)N2CCNC(=O)C2)c(OC(C)C)c1` [Nutlin-3] + C=CCNC1=C2C[C@@H](C)C[C@H](OC)[C@H](O)[C@@H](C)/C=C(\C)[C@H](OC(N)=O)[C@@H](OC)/C=C\C=C(/C)C(=O)NC(=CC1=O)C2=O [Tanespimycin] (first compound 0.1 µM, partner dose 0.002 µM), the “cleaved PARP positive nuclei fraction” value is 94.6%.

Take `C[C@@H](N)c1ccc(C(=O)Nc2ccnc3[nH]ccc23)cc1` + CC(C)C[C@H](NC(=O)[C@H](Cc1ccccc1)NC(=O)c1cnccn1)B(O)O [Bortezomib] (first compound 0.4 µM, partner dose 0.001 µM): the “cleaved PARP positive nuclei fraction” value was 131%.

`C[C@]1(O)C[C@@H](c2nc(-c3ccc4ccc(-c5ccccc5)nc4c3)c3c(N)nccn32)C1` + CS(=O)(=O)CCNCc1ccc(-c2ccc3ncnc(Nc4ccc(OCc5cccc(F)c5)c(Cl)c4)c3c2)o1 [lapatinib] (first compound 0.4 µM, partner dose 0.8 µM): the “cleaved PARP positive nuclei fraction” value stood at 223%.
